Values from PubChem BioAssay AID1259424 (University of Nebraska Medical Center, 2018)

Test: 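Rank knockdowns across the genome by resemblance to the KSR1 depletion profile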 (primary screen)
Cells: human HCT116 colon cancer cells
Knock-down reagent: siRNA pool against human genes, 50 nM
Measurement: 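Six signature mRNAs by branched-DNA multiplex assay, scaled to two housekeeping genes and non-targeting median, log2; matched to mean KSR1 knockdown profile by Pearson correlation and euclidean distance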
Direction: mean correlation with KSR1 profile: higher = expression change more like KSR1 knockdown
The deposit covers about 14,000 reagents; shown is a random part of them. 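Higher correlation or smaller distance means closer resemblance to KSR1 loss; control wells, including KSR1 knockdowns, recur on many plates.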 Not all columns of the deposit are shown. The record does not give: the time to read-out.

{"Target gene": "SMARCA5 (SNF2 related chromatin remodeling ATPase 5)", "mean correlation with KSR1 profile": 0.11}
{"Target gene": "PTPN14 (protein tyrosine phosphatase non-receptor type 14)", "mean correlation with KSR1 profile": -0.221}
{"Target gene": "TGFBI (transforming growth factor beta induced)", "mean correlation with KSR1 profile": 0.628}
{"Target gene": "CCDC102B (coiled-coil domain containing 102B)", "mean correlation with KSR1 profile": 0.292}
{"Target gene": "NDE1 (nudE neurodevelopment protein 1)", "mean correlation with KSR1 profile": -0.363}
{"Target gene": "CA1 (carbonic anhydrase 1)", "mean correlation with KSR1 profile": -0.347}
{"Target gene": "CACNA1D (calcium voltage-gated channel subunit alpha1 D)", "mean correlation with KSR1 profile": 0.196}
{"Target gene": "IRAK2 (interleukin 1 receptor associated kinase 2)", "mean correlation with KSR1 profile": -0.532}
{"Target gene": "ARMCX5 (armadillo repeat containing X-linked 5)", "mean correlation with KSR1 profile": 0.4}
{"Target gene": "GAGE12I (G antigen 12I)", "mean correlation with KSR1 profile": 0.0634}
{"Target gene": "TRAPPC14 (trafficking protein particle complex subunit 14)", "mean correlation with KSR1 profile": -0.0919}
{"Target gene": "ICAM1 (intercellular adhesion molecule 1)", "mean correlation with KSR1 profile": 0.000642}
{"Target gene": "NCAPG (non-SMC condensin I complex subunit G)", "mean correlation with KSR1 profile": -0.347}
{"Target gene": "VN1R3 (vomeronasal 1 receptor 3)", "mean correlation with KSR1 profile": 0.518}
{"Target gene": "CLIC5 (CLIC family member 5)", "mean correlation with KSR1 profile": 0.411}
{"Target gene": "PPP4C (protein phosphatase 4 catalytic subunit)", "mean correlation with KSR1 profile": 0.0111}
{"Target gene": "EDEM1 (ER degradation enhancing alpha-mannosidase like protein 1)", "mean correlation with KSR1 profile": 0.339}
{"Target gene": "ATP5F1C (ATP synthase F1 subunit gamma)", "mean correlation with KSR1 profile": -0.495}
{"Target gene": "MED1 (mediator complex subunit 1)", "mean correlation with KSR1 profile": -0.0139}
{"Target gene": "ZNF107 (zinc finger protein 107)", "mean correlation with KSR1 profile": -0.606}
{"Target gene": "STAT3 (signal transducer and activator of transcription 3)", "mean correlation with KSR1 profile": -0.475}
{"Target gene": "UBE2D2 (ubiquitin conjugating enzyme E2 D2)", "mean correlation with KSR1 profile": 0.23}
{"Target gene": "CBLIF (cobalamin binding intrinsic factor)", "mean correlation with KSR1 profile": -0.315}
{"Target gene": "FOXI1 (forkhead box I1)", "mean correlation with KSR1 profile": 0.833}
{"Target gene": "GLT8D1 (glycosyltransferase 8 domain containing 1)", "mean correlation with KSR1 profile": 0.619}
{"Target gene": "BTBD8 (BTB domain containing 8)", "mean correlation with KSR1 profile": -0.418}
{"Target gene": "SLC30A2", "mean correlation with KSR1 profile": -0.197}
{"Target gene": "KRTAP1-3 (keratin associated protein 1-3)", "mean correlation with KSR1 profile": 0.559}

In a second layout: entries from further up.
| Target gene | mean correlation with KSR1 profile |
| --- | --- |
| MED1 (mediator complex subunit 1) | -0.0139 |
| ZNF107 (zinc finger protein 107) | -0.606 |
